Experimental data as given in article PMC5442318, “Hundreds of dual-stage antimalarial molecules discovered by a functional gametocyte screen” (Nature Communications, 2017).

Tested on: HepG2 cells
Test: HepG2 cytotoxicity assay
Type: cell-based
Conditions: HepG2 TOX50 / Pf FGAA IC50
Summary of the method: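 Cell viability is measured by CellTiter-Glo luminescence. Signal is developed at room temperature and read 10 min after adding the reagent, with plates and reagent first equilibrated for 30 min.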

| Structure (SMILES) | Selectivity ratio |
| --- | --- |
| Cl.Nc1c(I)cc(C(=O)Nc2ccc3nc4c(c(N)c3c2)CCCC4)cc1I [TCMDC-142289] | 5.83 |
| Nc1nc(N)c2cc(NC(=O)c3ccc(Cl)c(Cl)c3)ccc2n1 [TCMDC-141982] | 1.35 |
| O=C(CCC1CCCC1)N(Cc1ccc(-c2ccc(CNCCc3ccccc3)cc2)cc1)C1CCCNC1.O=C(O)C(F)(F)F (centres unmarked) [TCMDC-141444] | 2.62 |

Same assay, conditions: HepG2 TOX50 versus Pf FGAA IC50

| Structure (SMILES) | Selectivity ratio |
| --- | --- |
| Fc1ccc2[nH]c(-c3ccc(-c4ccc(CN5CCC(CCN6CCCCC6)CC5)cc4)cc3)nc2c1.O=C(O)C(F)(F)F [TCMDC-133924] | 2.31 |
| CCOc1ccc(-n2nc3c(Cl)nnc(-c4ccccc4)c3c2-c2ccccc2)cc1 [TCMDC-123899] | >106.38 |
| O=C(O)C(F)(F)F.c1cc(CN2CCC(CCN3CCCCC3)CC2)cc(-c2csc(-c3nc4ccccc4[nH]3)c2)c1 [TCMDC-133919] | 2.87 |
| N=C(/N=C(/NCCCCCCN/C(=N\C(=N)Nc1ccc(Cl)cc1)N1CCCCC1)N1CCCCC1)Nc1ccc(Cl)cc1 [TCMDC-131811] | 5.62 |
| CNCCNc1nccc(N2CCc3ncnc(Nc4ccc(OCc5cccc(F)c5)c(Cl)c4)c3C2)n1 [TCMDC-135478] | 3.36 |
| Fc1ccc2[nH]c(-c3cccc(-c4ccc(CN5CCC(CCN6CCCCC6)CC5)cc4)c3)nc2c1.O=C(O)C(F)(F)F [TCMDC-133940] | 2.54 |
| CN1CCC(NCc2cccc(-c3ccc(S(=O)(=O)NCc4ccccc4)c(F)c3)c2)CC1.O=C(O)C(F)(F)F [TCMDC-132219] | 1.95 |
| CN(C)c1ccc(-c2csc(C(=O)NCC3CCN(Cc4ccc(C(C)(C)C)cc4)C3)c2)cc1.O=C(O)C(F)(F)F (centres unmarked) [TCMDC-134449] | 11.99 |
| Cc1ccccc1OCC(O)CNC1CCC(NCC(O)COc2ccccc2C)CC1 (centres unmarked) [TCMDC-125142] | 3.66 |
| CC(C)(C)OC(=O)NCc1ccc(Nc2nnc(-c3cccc(C(=O)NCc4cc(C(F)(F)F)cc(C(F)(F)F)c4)c3)o2)cc1 [TCMDC-135229] | 6.82 |
| CN1CCC(N2CCN(Cc3cccc(-c4ccc(-c5nc6cc(C(F)(F)F)ccc6[nH]5)cc4)c3)CC2)CC1.O=C(O)C(F)(F)F [TCMDC-133842] | 2.23 |
| Br.CCCCc1ccc(CCNCCCCCCNCCc2ccc(O)c(O)c2)cc1 [TCMDC-131281] | 2.16 |
| COc1cccc(OC)c1CN1CCC(N(C)CCCCCCCCN2CCC(OC(=O)Nc3ccccc3-c3ccccc3)CC2)CC1 [TCMDC-134684] | 0.85 |
| Cc1cccc2nc(-c3ccc(-c4ccc(CNCc5ccc(CN)cc5)cc4)s3)[nH]c12.O=C(O)C(F)(F)F [TCMDC-132809] | 31.75 |
| COc1cccc(OC)c1CN1CCC(N(C)CCCCCCCCCN2CCC(OC(=O)Nc3ccccc3-c3ccccc3)CC2)CC1 [TCMDC-134690] | 1.46 |
| O=S(=O)(Nc1cccc(F)c1CNCc1ccccn1)c1ccc(Cl)c(Cl)c1 [TCMDC-132598] | 15.04 |

| Structure (SMILES) | Selectivity ratio |
| --- | --- |
| FC(F)(F)c1cccc(Nc2nc3ccccc3nc2Nc2cccc(C(F)(F)F)c2)c1 [TCMDC-124162] | 7.38 |
| Clc1ccc(-c2csc3ncnc(Cl)c23)cc1 [TCMDC-123811] | 60.12 |
| COc1ccc(CCNCCCCCCNCCc2ccc(-c3ccccc3)cc2)cc1OC.Cl [TCMDC-131267] | 5.49 |
| FC(F)(F)c1ccc2[nH]c(-c3ccc(-c4cccc(CNCCN5CCNCC5)c4)cc3)nc2c1.O=C(O)C(F)(F)F [TCMDC-132864] | 7.18 |
| COc1ccc(OC)c(-c2cccc(-c3cccc(NC(=O)c4ccc([N+](=O)[O-])o4)c3)n2)c1 [TCMDC-124799] | 3.77 |
| COc1cccc(-c2csc(C(=O)NCC3CCN(Cc4ccc(C(C)C)cc4)C3)c2)c1.O=C(O)C(F)(F)F (centres unmarked) [TCMDC-134439] | 8.39 |
| NCCCCNc1cc(-c2ccnc(Nc3cccc(Cl)c3)n2)ccn1 [TCMDC-134683] | 0.46 |
| CC(C)c1ccc(CN2CCC(CNC(=O)c3cc(-c4ccc(N(C)C)cc4)cs3)C2)cc1.O=C(O)C(F)(F)F (centres unmarked) [TCMDC-134440] | 8.27 |
| [O-][s+]1c(Cl)c(-c2ccc(Cl)cc2)c2ccc(Cl)cc21 (centres unmarked) [TCMDC-124011] | 310.09 |
| CN(C)Cc1cccc2nc(-c3csc(Cc4cc(Cl)ccc4OCc4ccccc4)n3)[nH]c12 [TCMDC-132174] | 6.21 |
| OC1CCN(c2cc(-c3ccccn3)nc(-c3ccccn3)n2)CC1 [TCMDC-123786] | 9.15 |
| CCCCN(CCCC)/C(=N/C(=N)NCc1ccc(Cl)c(Cl)c1)NCCCCCCN/C(=N\C(=N)NCc1ccc(Cl)c(Cl)c1)N(CCCC)CCCC [TCMDC-131821] | 5.55 |
| CC(C)c1ccc(CN2CCC(CNC(=O)c3cc(-c4ccccc4F)cs3)C2)cc1.O=C(O)C(F)(F)F (centres unmarked) [TCMDC-134436] | 8.46 |
| Cc1sc2nc(CN3CCCC3)nc(-n3c(NCCO)nc4ccccc43)c2c1C [TCMDC-124811] | 3.65 |
| Cl.N[C@@H](CCNC1CCN(c2cccc(C(F)(F)F)c2)CC1)Cc1ccc(F)c(F)c1 [TCMDC-132301] | 8.50 |

Same assay, conditions: HepG2 TOX50 vs Pf FGAA IC50

| Structure (SMILES) | Selectivity ratio |
| --- | --- |
| COc1cccc(C23N=C(Nc4nc5ccccc5[nH]4)NC2(c2cccc(OC)c2)NC(Nc2nc4ccccc4[nH]2)=N3)c1 (centres unmarked) [TCMDC-139087] | 437.61 |
| COc1cc2nc(NCc3cccc(CNC(=O)c4ccc(-c5ccc(C(C)=O)cc5)cc4)c3)nc(N)c2cc1OC.O=C(O)C(F)(F)F [TCMDC-138177] | 1.44 |
| CN(/N=C/C=C/c1ccc(Cl)cc1)c1nc(NCCc2ccc(O)cc2)nc(N2CCNCC2)n1 [TCMDC-138546] | 6.73 |
| CC(C)(CN)c1nc(-c2ccc(Br)c(O)c2)c(-c2ccncc2)[nH]1.Cl [TCMDC-140680] | 54.47 |
| Cc1cc(OCCN2CCCCC2)ccc1NC(=O)c1cccc2c(=O)n(Cc3ccc(Cl)cc3)cnc12 [TCMDC-136727] | 2.97 |
| C=C[C@H]1CN(CCCCCCC)CC[C@H]1CCNc1ccnc2ccc(OC)cc12 [TCMDC-139204] | 1.24 |
| Cl.c1ccc2c(C3CCN(CCCCOc4ccc5c(c4)CCN(CC4CC4)CC5)CC3)c[nH]c2c1 [TCMDC-136244] | 4.48 |
| CCCCN(CCCC)CCCCNc1c2ccc(Cl)cc2nc2ccc(OC)cc12.Cl [TCMDC-137460] | 2.41 |
| COc1cc(NCCCNCc2cn(Cc3cc(Br)cc(Br)c3)c3ccccc23)nc2ccccc12 [TCMDC-140677] | 4.58 |
| COc1c(OC)c(OC)c2ccccc2c1CNCCCCCCNCc1c(OC)c(OC)c(OC)c2ccccc12.Cl [TCMDC-137827] | 1.77 |
| O=C(NCC1CCN(CCN2CCC(c3cn(CCO)c4ccccc34)CC2)CC1)c1ccc(-c2ccc(C(F)(F)F)cc2)cc1 [TCMDC-138856] | 1.83 |
| COc1ccc2c(c1CCNCCCCNCCc1c(OC)ccc3c1CCCC3)CCCC2.CS(=O)(=O)O [TCMDC-137324] | 2.62 |
| COc1cc2nc(N3CCC(CNC(=O)c4ccc(-c5ccc(-c6noc(C)n6)cc5)cc4)CC3)nc(N)c2cc1OC [TCMDC-138754] | 4.67 |
| Cc1noc(C)c1-c1ccc2c(Nc3nccc4ccccc34)c(C(N)=O)cnc2c1 [TCMDC-136456] | 2.50 |
| CCN(CC)CCN(Cc1ccc(-c2ccc(Cl)cc2)cc1)C(=O)Cn1cc(CN(C)C)c(=O)nc1SCc1ccc(F)cc1 [TCMDC-140406] | 4.77 |
| Clc1nc(Cl)c2c(ccn2Cc2ccccc2)n1 [TCMDC-137801] | >68.49 |
| CN1CCN(c2cc3c(cc2Cl)CCN3C(=O)Nc2ccc(NC(=O)c3ccc(C(F)(F)F)cc3)cc2)CC1.Cl [TCMDC-139270] | 5.75 |

| Structure (SMILES) | Selectivity ratio |
| --- | --- |
| CN(C)CCN(C)Cc1cccc(-c2ccc3c(Nc4ccc(F)cc4Cl)ccnc3c2)c1 [TCMDC-138416] | 0.87 |
| Cl.c1ccc2c(NCCCCCCCCCNc3ccnc4ccccc34)ccnc2c1 [TCMDC-137750] | 1.77 |
| CN(C)CCCOc1ccc(CN2CCC(c3c[nH]c4ccc(NCC5CCCCC5)cc34)CC2)cc1.O=C(O)C(F)(F)F [TCMDC-140737] | 9.76 |
| CC(C)(CN)c1nc(-c2ccc(Cl)c(O)c2)c(-c2ccncc2)[nH]1.Cl [TCMDC-140369] | 2.31 |
| Nc1ccc2[nH]cc(C3CCN(CCC4CCN(C(=O)/C=C/c5ccc(Cl)c(Cl)c5)CC4)CC3)c2n1 [TCMDC-140062] | 6.29 |
| CC(Cc1ccc(NC(=O)c2ccc(CNCCc3ccccc3)cc2)cc1)NCCc1cccc(Cl)c1.Cl (centres unmarked) [TCMDC-139867] | 2.02 |
| Cc1cc(N)c2cc(NC(=O)/C=C/c3ccc([N+](=O)[O-])cc3)ccc2n1 [TCMDC-139335] | 2.00 |
| CC(C)Oc1ccc2ccccc2c1CNCCCCCCNCc1c(OC(C)C)ccc2ccccc12.CS(=O)(=O)O [TCMDC-137965] | 2.01 |
| CCCCCCCN1CC[C@@H](CCCc2ccnc3ccc(OCCN4CCNCC4)cc23)[C@@H](CC)C1.Cl [TCMDC-139817] | 2.63 |
| CS(=O)(=O)O.CSc1ccc2ccccc2c1CCNCCCCNCCc1c(SC)ccc2ccccc12 [TCMDC-137763] | 1.80 |
| CN(C)CCN(C)Cc1ccc(-c2ccc3c(Nc4ccc(Oc5ccccn5)cc4)ccnc3c2)o1 [TCMDC-138426] | 2.62 |
| COc1c(C2CCN(CCN3CCC(CNC(=O)c4ccc(-c5ccc(C#N)cc5)cc4)CC3)CC2)ccc2c1CCCC2 [TCMDC-138859] | 2.35 |
| CC(C)COc1ccc2ccccc2c1CNCCCCCCNCc1c(OCC(C)C)ccc2ccccc12.CS(=O)(=O)O [TCMDC-137972] | 2.69 |
| c1cc(C2=N[C@H]3CCCC[C@@H]3N2)ccc1OCCCOc1ccc(C2=N[C@@H]3CCCC[C@H]3N2)cc1 [TCMDC-137803] | 3.31 |
| COc1cc2nc(N3CCC(CNCc4ccc(-c5ccc(C(F)(F)F)cc5)cc4)CC3)nc(N)c2cc1OC [TCMDC-138757] | 14.62 |
| COc1ccc(-c2ccccc2)cc1NC(=S)NC1CCC(CN2CCC(c3c[nH]c4ccccc34)CC2)CC1 (centres unmarked) [TCMDC-140182] | 3.33 |
| CC(=O)N(Cc1ccc(CC(C)NCCc2cccc(Cl)c2)cc1)Cc1ccc(CC(C)NCCc2cccc(Cl)c2)cc1 (centres unmarked) [TCMDC-139678] | 3.52 |
